Data as given in PubChem BioAssay AID1259308 (NCATS, 2017)
Screen: 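Candidate targets for better recombinant protein yield in mammalian cells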 (primary screen). System: human HEK293 embryonic kidney cells stably expressing firefly luciferase (HEK-CMV-Luc2-Hygro). Reagents: single siRNA against human genes, 0.8 pmol siRNA per well. Timing: 72 h. Read-out: 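Reporter luminescence and viable-cell signal on separate replicate plates, given as percent of non-targeting control and median/MAD z-scores, plus per-cell luciferase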. Scale: total luciferase, z-score and total luciferase, % of control: higher = more reporter protein produced. Call rule: 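An siRNA counts as active if its total luciferase robust z-score exceeds 3; genes with two or more such siRNAs out of three were retested with fresh siRNAs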. Calls: active = raised luciferase; inactive = no rise.
This is a random part of about 59,000 reagents. About 1,510 of all reagents (2.6%) count as active. 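Calls use total luciferase alone and ignore viability, so some active siRNAs may act by altering cell number.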 Reagents against one gene are numbered here. Further read-outs or replicates are left out here.

FAM90A27P (family with sequence similarity 90 member A27, pseudogene) #1: total luciferase, z-score = -2.18; total luciferase, % of control = 38.6; Call = inactive
FAM90A27P (family with sequence similarity 90 member A27, pseudogene) #2: total luciferase, z-score = 2.07; total luciferase, % of control = 123; Call = inactive
FAM90A27P (family with sequence similarity 90 member A27, pseudogene) #3: total luciferase, z-score = -0.693; total luciferase, % of control = 68.1; Call = inactive
CLEC14A (C-type lectin domain containing 14A) #1: total luciferase, z-score = -0.00449; total luciferase, % of control = 81.8; Call = inactive
CLEC14A (C-type lectin domain containing 14A) #2: total luciferase, z-score = -0.571; total luciferase, % of control = 70.5; Call = inactive
CLEC14A (C-type lectin domain containing 14A) #3: total luciferase, z-score = -0.469; total luciferase, % of control = 72.6; Call = inactive
UPF1 (UPF1 RNA helicase and ATPase) #1: total luciferase, z-score = 4.9; total luciferase, % of control = 179; Call = active
UPF1 (UPF1 RNA helicase and ATPase) #2: total luciferase, z-score = 1.34; total luciferase, % of control = 109; Call = inactive
UPF1 (UPF1 RNA helicase and ATPase) #3: total luciferase, z-score = 2.42; total luciferase, % of control = 130; Call = inactive
CCDC112 (coiled-coil domain containing 112) #1: total luciferase, z-score = 0.203; total luciferase, % of control = 85.9; Call = inactive
CCDC112 (coiled-coil domain containing 112) #2: total luciferase, z-score = -1.94; total luciferase, % of control = 43.3; Call = inactive
CCDC112 (coiled-coil domain containing 112) #3: total luciferase, z-score = 0.138; total luciferase, % of control = 84.6; Call = inactive

A run of entries taken from the entries so far, for reference:
FAM90A27P (family with sequence similarity 90 member A27, pseudogene) #3: total luciferase, z-score = -0.693; total luciferase, % of control = 68.1; Call = inactive
CLEC14A (C-type lectin domain containing 14A) #1: total luciferase, z-score = -0.00449; total luciferase, % of control = 81.8; Call = inactive
